From US20080118498A1
No constants are given. Whether binding was seen depends on the method and setting. Some binding calls cover weakened binding; strength is not graded here.

Assays:
[1] = biological target: T1, C8 acylated human ghrelin (1-28) (human); experiment: KinExA and BIAcore SPR, taken together
T1 sequence (peptide, n-octanoyl group on the serine at position three (Ser3)): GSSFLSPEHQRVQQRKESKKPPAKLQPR

[2] = biological target: T1, C8 acylated human ghrelin (1-28) (human); experiment: KinExA

binding [1]: binds | binding [2]: binds
B1: Humanized, affinity matured C2 anti-ghrelin Fab 7b2 (Fab, V domains shown)
VH: QVQLVQSGAEVKKPGASVKVSCKATGYIFTGYWIEWVRQAPGQGLEWMGDILPGSGSPNYNEKFKGRVTMTTDTSTSTAYMELRSLRSDDTAVYYCARYPIFRLRTERIAEWGQGTLVTVSS
VL: DIVMTQSPDSLAVSLGERATINCRASKSVSLLGYSYMHWYQQKPGQPPKLLIYFASNLESGVPDRFSGSGSGTDFTLTISSLQAEDVAVYYCQHSIEEPYTFGQGTKLEIK
